Experimental findings from patent US20240190990A1 (BEIGENE SWITZERLAND, published 2024) are described below.

Amino acid sequences for entries named in this document (tags omitted). A change or cut given only in a name is not applied to a line headed by its entry.
UniProt P06731: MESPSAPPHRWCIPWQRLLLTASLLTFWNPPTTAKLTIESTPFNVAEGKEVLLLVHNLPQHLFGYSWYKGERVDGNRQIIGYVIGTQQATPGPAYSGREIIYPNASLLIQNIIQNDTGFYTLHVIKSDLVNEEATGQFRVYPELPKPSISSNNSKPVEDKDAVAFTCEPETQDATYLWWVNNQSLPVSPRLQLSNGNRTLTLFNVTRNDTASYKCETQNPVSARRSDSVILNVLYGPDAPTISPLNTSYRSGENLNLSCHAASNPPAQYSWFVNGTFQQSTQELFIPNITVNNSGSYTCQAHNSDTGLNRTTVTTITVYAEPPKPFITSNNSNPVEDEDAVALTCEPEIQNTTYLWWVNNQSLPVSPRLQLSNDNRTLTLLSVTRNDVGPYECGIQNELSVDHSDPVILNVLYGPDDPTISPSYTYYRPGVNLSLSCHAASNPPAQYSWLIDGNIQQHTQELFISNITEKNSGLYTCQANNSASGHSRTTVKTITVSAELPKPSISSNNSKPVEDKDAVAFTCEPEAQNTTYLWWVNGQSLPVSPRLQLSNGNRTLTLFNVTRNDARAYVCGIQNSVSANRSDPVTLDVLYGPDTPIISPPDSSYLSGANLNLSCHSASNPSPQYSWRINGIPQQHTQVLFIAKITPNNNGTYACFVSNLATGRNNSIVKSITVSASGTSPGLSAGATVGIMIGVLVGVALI

Positions count from the first letter of the chain named. Names and notes keep the numbering of the source. Results are given in words; binding and its absence hold for the method and conditions named. Some entries that bind do so weakly or less than the wild type.

To fix the notation:
B1: BGA135 (antibody, human IgG1, kappa, V domains shown)
VH: QVQLVQSGAEVKKPGASVKVSCKASGYIFTSYWLHWVRQAPGQGLEWIGYINPNTGYTNYSQKFQGRVTMTRDTSTSTVYMELSSLRSEDTAVYYCAREYGNYNYPLDYWGQGTLVTVSS
VL: DIQMTQSPSSLSASVGDRVTITCRASENIYGYLAWYQQKPGKSPKLLIYNAKNLVEGVPSRFSGSGSGTDFTLTISSLQPEDVATYYCQHHYGTPYTFGQGTKVEIKR
B2: BGA137 (antibody, human IgG1, kappa, V domains shown)
VH: B1 VH with V79A
VL: B1 VL
B3: BGA136 (antibody, human IgG1, kappa, V domains shown)
VH: B1 VH with V68A, R72A
VL: B1 VL
B4: BGA131B (antibody, human IgG1, kappa, V domains shown)
VH: B1 VH with N54Q
VL: B1 VL with S43V
B5: BGA133 (antibody, human IgG1, kappa, V domains shown)
VH: B1 VH with V79A
VL: B1 VL with S43V
B6: BGA132 (antibody, human IgG1, kappa, V domains shown)
VH: B1 VH with V68A, R72A
VL: B1 VL with S43V
B7: BGA131D (antibody, human IgG1, kappa, V domains shown)
VH: B1 VH with N102G
VL: B1 VL with S43V
B8: BGA131A (antibody, human IgG1, kappa, V domains shown)
VH: B1 VH with N52T
VL: B1 VL with S43V
B9: BGA131E (antibody, human IgG1, kappa, V domains shown)
VH: B1 VH with N104Q
VL: B1 VL with S43V
B10: BGA134 (antibody, human IgG1, kappa, V domains shown)
VH: B1 VH with V68A, R72A, V79A
VL: B1 VL with S43V
B11: BGA131C (antibody, human IgG1, kappa, V domains shown)
VH: B1 VH with N59S
VL: B1 VL with S43V
B12: BGA138 (antibody, human IgG1, kappa, V domains shown)
VH: B1 VH with V68A, R72A, V79A
VL: B1 VL
B13: BGA131 (antibody, human IgG1, kappa, V domains shown)
VH: B1 VH
VL: B1 VL with S43V
B14: BGA113 variant L92E (antibody, V domains shown)
VH: B1 VH with W33Y, N54Q, N59S, S61A
VL: DIQMTQSPSSLSASVGDRVTITCRASENQYGYLAWYQQKPGKVPKLLIYNYKNLVEGVPSRFSGSGSGTDFTLTISSLQPEDVATYYCQHHEGTPYTFGQGTKVEIK

The first experiment deals with human CEA (form used in the assay not stated) (human) (UniProt P06731). Nature of the experiment: assay not named.
B1: the binding result is reported as “binds”.
In the case of B2, the binding result was “binds”.
In the case of B3, the binding result is given as “binds”.
In the case of B4, the binding entry is recorded as “binds”.
Same read-out and setting: the entry for B5 is “binds”; for B6 it is “binds”.
Same read-out and setting: the entry for B7 is “binds”.
The same measure, in the same setting: the value for B8 was “binds”; that for B9 was “binds”; that for B10 was “binds”.
Take B11: the binding result was “binds”.
Still for that read-out and setting: the value for B12 was “binds”.
Turning to B13, the binding entry is reported as “binds”.

A further experiment concerns the target soluble human CEA (amino acids 1-687 of huCEA, C-terminal 6xHis) (human) (UniProt P06731). Nature of the experiment: SPR and FACS of IgG variants.
As for B14, the binding entry was “binds”.
